Results deposited as PubChem BioAssay AID1259308 (NCATS, 2017)
In all, the deposit lists about 59,000 reagents; this is a part drawn at random. About 1,510 of all reagents (2.6%) were called active. 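Calls use total luciferase alone and ignore viability, so some active siRNAs may act by altering cell number.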 A number with no mark means an inactive call. The numbers tell different reagents against one gene apart. No sequences are given here.

- Test: 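Knock-downs that increase output of a recombinant reporter protein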 (primary screen)
- Cell system: human HEK293 embryonic kidney cells stably expressing firefly luciferase (HEK-CMV-Luc2-Hygro)
- Knock-down reagent: single siRNA against human genes, 0.8 pmol siRNA per well
- Time to read-out: 72 h
- Measured: 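Reporter luminescence and viable-cell signal on separate replicate plates, given as percent of non-targeting control and median/MAD z-scores, plus per-cell luciferase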
- Reading the numbers: total luciferase, z-score and total luciferase, % of control: higher = more reporter protein produced; luciferase per cell, z-score: higher = more reporter output per viable cell; viable cells, % of control: higher = more viable cells
- Hit rule: 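Active when the median/MAD z-score for overall luciferase is greater than 3; a gene was taken forward for validation with new siRNAs if at least two of its three siRNAs passed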
- Meaning of the calls: active = raised luciferase; inactive = no rise

target gene	siRNA no.	total luciferase, z-score	total luciferase, % of control	luciferase per cell, z-score	viable cells, % of control
CEP20	1	-0.52	71.5	-0.479	90.7
CEP20	2	1.75	117	1.81	81
CEP20	3	-0.579	70.4	-0.782	96.6
ERCC4	1	0.267	87.2	-0.465	110
ERCC4	2	0.586	93.5	0.526	91
ERCC4	3	1.03	102	0.17	109
VPREB1	1	0.436	90.6	0.753	83
VPREB1	2	0.245	86.8	-0.0178	97.4
VPREB1	3	2.99	141	1.59	104
APAF1	1	0.435	90.5	0.666	84.9
APAF1	2	0.376	89.4	-0.0428	101
APAF1	3	-1.28	56.4	-1.13	84.7
NPIPB7	1	1	102	0.516	99.3
NPIPB7	2	-1.16	58.9	-0.108	67.7
NPIPB7	3	-0.826	65.4	-0.497	83.4
RBX1	1	0.0824	83.5	0.785	75.9
RBX1	2	-0.663	68.7	-0.104	78.9
RBX1	3	1.4	110	1.83	75.8
DNMT3B	1	-0.693	68.1	-1.14	103
DNMT3B	2	1.27	107	1.15	88.4
DNMT3B	3	-1.09	60.1	-1.46	98.7
HAUS4	1	-0.681	68.3	0.482	67.3
HAUS4	2	1.25	107	0.773	97.2
HAUS4	3	-2.08	40.6	-1.76	72
